Experimental data as given in patent publication US20250051314A1, “SMALL MOLECULE INHIBITORS OF INTERFERON GAMMA SIGNALING” (INSTITUT CURIE, priority 2021, published 2025).

Tested on: Hela cells
Experiment: Cell viability assay (CellTiter-Blue)
Assay type: cell-based
Conditions: IC50 of Cell Viability/IC50 of pSTAT1 inhibition
Protocol: Cell viability assay was carried out by plating 10,000 cells/well in 96-well plates. 3-Fold 8 serial dilutions of the compounds from 3 mM were made in DMEM. HeLa cells were treated for 24 h with the compounds of different concentrations made. In case of preincubation with IFNγ, 6000 U·ml^−1 of IFNγ per concentration of compounds were used and incubated for 20 min. According to manufacturer's protocol,
CellTiter-Blue® reagent was added after 24 h treatment and cells were incubated for 3 h before recording fluorescence intensities (λex. 560/20 nm; λem. 590/10 nm) using a Perkin Elmer Wallac 1420 Victor2 Microplate Reader.

| Compound | Therapeutic index |
| --- | --- |
| C#Cc1ccc(C=C2C(=O)NC(=S)N(c3cccc(Br)c3)C2=O)o1 [Compound 5a, (1-(3-bromophenyl)-5-((5-ethynylfuran-2-yl)methylene)-2-thioxodihydropyrimidine-4,6(1H,5H)-dione)] | 307 |
| C#Cc1ccc(C=C2C(=O)NC(=S)N(c3cccc(F)c3)C2=O)o1 [Compound 5b, 5-((5-ethynylfuran-2-yl)methylene)-1-(3-fluorophenyl)-2-thioxodihydropyrimidine-4,6(1H,5H)-dione] | 16 |
| C#Cc1ccc(C=C2C(=O)N(c3cccc(Br)c3)C(=S)N(c3cccc(Br)c3)C2=O)o1 [Compound 5j, 1,3-bis(3-bromophenyl)-5-((5-ethynylfuran-2-yl)methylene)-2-thioxodihydropyrimidine-4,6(1H,5H)-dione] | 66.58 |
| C#Cc1ccc(C=C2C(=O)N(c3cccc(F)c3)C(=S)N(c3cccc(F)c3)C2=O)o1 [Compound 5k, 5-((5-ethynylfuran-2-yl)methylene)-1,3-bis(3-fluorophenyl)-2-thioxodihydropyrimidine-4,6(1H,5H)-dione] | 16 |
